Results are given in words; binding and its absence hold for the method and conditions named. Binding seen in cells or lysates may run through a third protein. Binding calls can cover weak binding; strength is not graded here.
Key:
myc-MAGI2 PDZ2-5 (rat) = myc-MAGI2 PDZ2-5 (rat) (UniProt O88382); assay: co-IP; lysates of HEK293 cells transiently co-transfected; IP overnight at 4°C with anti-GFP, anti-myc, anti-HA or anti-flag and Protein G Dynabeads; washes with 500 mM NaCl, 0.1% SDS, 0.5% Triton X-100; immunoblot; for syntenin-1 under basal conditions and after CRH (100 nM) treatment
flag-CRHR1 (human) = flag-CRHR1 (human) (UniProt P34998); assay: as above

By UniProt entry, the sequences of proteins in these tests, tags left out. Where a name states a change or a piece, a line headed by the entry shows the natural chain unless it says otherwise. Residues count along the entry.
UniProt O88382: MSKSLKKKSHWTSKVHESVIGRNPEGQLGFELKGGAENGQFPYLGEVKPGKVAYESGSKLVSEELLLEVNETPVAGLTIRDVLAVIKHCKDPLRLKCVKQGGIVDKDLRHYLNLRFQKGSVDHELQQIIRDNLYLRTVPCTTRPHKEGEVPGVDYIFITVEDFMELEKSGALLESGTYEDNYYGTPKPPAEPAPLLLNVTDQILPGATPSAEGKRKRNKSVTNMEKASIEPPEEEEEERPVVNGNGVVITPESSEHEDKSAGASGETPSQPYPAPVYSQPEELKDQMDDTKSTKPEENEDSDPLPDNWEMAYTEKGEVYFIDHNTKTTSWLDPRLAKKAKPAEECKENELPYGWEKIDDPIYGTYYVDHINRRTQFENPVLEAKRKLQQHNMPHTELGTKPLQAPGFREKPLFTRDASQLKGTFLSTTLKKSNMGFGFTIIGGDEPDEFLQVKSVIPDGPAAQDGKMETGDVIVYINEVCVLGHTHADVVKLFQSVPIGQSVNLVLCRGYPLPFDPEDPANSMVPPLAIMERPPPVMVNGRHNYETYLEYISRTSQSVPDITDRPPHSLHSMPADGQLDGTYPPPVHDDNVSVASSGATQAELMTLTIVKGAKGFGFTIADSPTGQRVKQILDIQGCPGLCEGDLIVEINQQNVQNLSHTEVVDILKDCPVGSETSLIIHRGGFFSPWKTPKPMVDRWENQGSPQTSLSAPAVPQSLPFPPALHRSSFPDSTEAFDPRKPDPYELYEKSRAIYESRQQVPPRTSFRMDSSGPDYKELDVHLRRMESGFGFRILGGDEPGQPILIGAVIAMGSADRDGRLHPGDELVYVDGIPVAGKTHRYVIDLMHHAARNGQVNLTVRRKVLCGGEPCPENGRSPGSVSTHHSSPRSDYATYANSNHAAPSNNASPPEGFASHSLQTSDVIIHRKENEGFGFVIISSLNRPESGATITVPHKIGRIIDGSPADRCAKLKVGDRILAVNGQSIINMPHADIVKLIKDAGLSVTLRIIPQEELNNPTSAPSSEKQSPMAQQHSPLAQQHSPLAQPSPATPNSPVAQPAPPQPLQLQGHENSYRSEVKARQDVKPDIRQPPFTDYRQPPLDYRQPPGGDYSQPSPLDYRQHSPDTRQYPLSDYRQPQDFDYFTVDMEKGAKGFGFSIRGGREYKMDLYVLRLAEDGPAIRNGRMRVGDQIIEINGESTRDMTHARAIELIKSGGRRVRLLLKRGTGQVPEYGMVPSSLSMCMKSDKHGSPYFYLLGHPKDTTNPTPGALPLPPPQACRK
UniProt P34998, residues 24-415: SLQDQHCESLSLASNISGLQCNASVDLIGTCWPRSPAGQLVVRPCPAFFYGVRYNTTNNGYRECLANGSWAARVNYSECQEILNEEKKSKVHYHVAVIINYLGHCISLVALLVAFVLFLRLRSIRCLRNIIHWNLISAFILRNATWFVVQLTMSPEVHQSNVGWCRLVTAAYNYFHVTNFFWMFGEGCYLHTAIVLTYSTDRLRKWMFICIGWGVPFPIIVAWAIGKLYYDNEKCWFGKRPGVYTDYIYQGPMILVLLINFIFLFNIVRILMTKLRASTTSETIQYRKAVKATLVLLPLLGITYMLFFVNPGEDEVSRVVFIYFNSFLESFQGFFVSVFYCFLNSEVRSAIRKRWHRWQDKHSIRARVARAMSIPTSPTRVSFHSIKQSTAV

| Substance | binding (myc-MAGI2 PDZ2-5 (rat)) | binding (flag-CRHR1 (human)) |
| --- | --- | --- |
| flag-CRHR1 (from UniProt P34998-2 24-415) (receptor) | binds |  |
| myc-MAGI2 PDZ2-5 (from UniProt O88382) (domain or fragment) |  | binds |

From article PMC4564177
